Values of other authors, collected in patent US6518035B1, “Targeted methods of drug screening using co-culture methods” (Rosetta Inpharmatics, Inc., priority 1998, dated 2003).
At least one structure is not confirmed: it was looked up by name or label, or the drawing left a doubt.

System: wild type yeast cells
Details: 10 micrograms/ml doxycycline (level giving maximal repression of Tet promoter activity); cited from earlier work

In the case of C[C@H]1c2cccc(O)c2C(=O)C2=C(O)[C@]3(O)C(=O)C(C(N)=O)=C(O)[C@@H](N(C)C)[C@@H]3[C@@H](O)[C@@H]21 [doxycycline], the “effect on growth rate of wild type yeast cells” value is given as “no significant effect”.
